# Some of the results follow.
# Molecular target: T1, OsSMF1 (Oryza sativa, UniProt Q6ZLB0 1-436)
# T1 sequence: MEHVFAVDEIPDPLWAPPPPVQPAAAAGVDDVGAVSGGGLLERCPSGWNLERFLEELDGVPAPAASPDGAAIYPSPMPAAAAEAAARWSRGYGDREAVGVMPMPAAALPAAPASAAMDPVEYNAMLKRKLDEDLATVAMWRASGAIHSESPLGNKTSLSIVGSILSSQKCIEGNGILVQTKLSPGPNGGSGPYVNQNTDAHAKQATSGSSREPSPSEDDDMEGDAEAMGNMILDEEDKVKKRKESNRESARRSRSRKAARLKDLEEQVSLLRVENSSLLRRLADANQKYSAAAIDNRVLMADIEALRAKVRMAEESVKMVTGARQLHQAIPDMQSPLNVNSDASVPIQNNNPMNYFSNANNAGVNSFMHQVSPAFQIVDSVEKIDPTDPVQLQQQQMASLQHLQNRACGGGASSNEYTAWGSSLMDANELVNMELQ
# Experiment: protein-binding microarray (RPBM); PBS, 2% BSA, 51.3 ng/ul salmon testes DNA, 50 uM zinc acetate, 200 nM TF, 25 C, 1 h; high values mean tight binding
# Details: protein: recombinant; tags: N-terminal polyhistidine and DsRed monomer fusion (pET32a); chain copies: 2; label: CyDye5-dUTP incorporated in the synthesized complementary strand; 3' TTTTT single-stranded linker to array surface; dsDNA, one strand shown
# Outline: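 The binding signal is fluorescence intensity per array feature (arbitrary units). Readings came from an Axon 4000B scanner after a washed, 2% BSA-blocked, double-stranded custom Agilent array had been incubated for 1 h at 25 °C with 200 nM protein and 50 µM zinc acetate. The protein was a Ni–NTA-purified transcription factor fused N-terminally to polyhistidine and DsRed, expressed in E. coli BL21-CodonPlus.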
row,Sequence,binding signal
1,GCCTTGGCACGGTGGGTTGGCCTGGCACAGCACGAAAGTCCGGAGTCACCTAGTGCAG,3230 fluorescence intensity (a.u.)
2,AGGCCGGGCCGTAGCGAAATCGAGAGCGTTTTCCATTCGTCGGAGTCACCTAGTGCAG,36500 fluorescence intensity (a.u.)
3,CAACCAATGAGTTGAAGGTTGCAAGCTGACACGTAAAGTTCGGAGTCACCTAGTGCAG,4910 fluorescence intensity (a.u.)
4,CGAGTGGCAAATAGGCGGTATCATCTCGCATTTCACTATTCGGAGTCACCTAGTGCAG,7100 fluorescence intensity (a.u.)
5,TTCCTCTGAACATTGCTATGGCAGTTCAGATTTAAGCCCACGGAGTCACCTAGTGCAG,3170 fluorescence intensity (a.u.)
6,ATATCTATGCACGCGACAACCAAAACATTACAATTCCACGCGGAGTCACCTAGTGCAG,3240 fluorescence intensity (a.u.)
7,GTTTGCTAATTAACGCGGGCAAGATCGAACACGGCCATGTCGGAGTCACCTAGTGCAG,15300 fluorescence intensity (a.u.)
8,AACTAATGCCAATATTGGCCTATATTGGCACACGTGGGTACGGAGTCACCTAGTGCAG,4350 fluorescence intensity (a.u.)
9,ACCCCGCCTTGGACGCCACGTCCAAGCTAGGCACCCGATGCGGAGTCACCTAGTGCAG,5270 fluorescence intensity (a.u.)
10,TTATGTTTGAATTTAAGTTTTGAGTTTTGTTGCGTGCGCACGGAGTCACCTAGTGCAG,28800 fluorescence intensity (a.u.)
11,AATCTCCCTCACGCTGACGTCAGCCCTAGCGTTCTCCTCCCGGAGTCACCTAGTGCAG,19700 fluorescence intensity (a.u.)
12,CACGCCACCACGCTCTCCGTGACAACGAGGCGCCAACCTCCGGAGTCACCTAGTGCAG,3640 fluorescence intensity (a.u.)
13,GGCTGAGAGAGAGACGCACACATGACACACCGGCGGACAACGGAGTCACCTAGTGCAG,4250 fluorescence intensity (a.u.)
14,CACCCGATTAAGTGCACGGACATGACGACTTCTACCGCCGCGGAGTCACCTAGTGCAG,4550 fluorescence intensity (a.u.)
15,GCCAGGTCCAACGCTGCAGATGTGTATAACATGCGGACACCGGAGTCACCTAGTGCAG,3340 fluorescence intensity (a.u.)
16,TTTTATCACATCGTTTTAATTTCAACCAAACTTTCAATTTCGGAGTCACCTAGTGCAG,32600 fluorescence intensity (a.u.)
17,CGCCACATAGACGTCACATCAGCTAAAACCACCAAGAGACCGGAGTCACCTAGTGCAG,4110 fluorescence intensity (a.u.)
18,TCTGCAGCAGCAGCTTGTGTGCCCTCACCATCATCATCATCGGAGTCACCTAGTGCAG,4210 fluorescence intensity (a.u.)
19,ATCCAGATTCAGAGTAGGAGCTAAAACCATGGTGAATCTGCGGAGTCACCTAGTGCAG,5250 fluorescence intensity (a.u.)
20,GTGGTTGGTGATGACCGGGGAGCGCGTCAGCGCCTGGTGGCGGAGTCACCTAGTGCAG,3940 fluorescence intensity (a.u.)
21,TCTACTGTTGCATTGCAGTGTTTGTAAGGGTGAATATTTACGGAGTCACCTAGTGCAG,9140 fluorescence intensity (a.u.)

# Copied from the listing (12 entries):
row,Sequence,binding signal
4,CGAGTGGCAAATAGGCGGTATCATCTCGCATTTCACTATTCGGAGTCACCTAGTGCAG,7100 fluorescence intensity (a.u.)
5,TTCCTCTGAACATTGCTATGGCAGTTCAGATTTAAGCCCACGGAGTCACCTAGTGCAG,3170 fluorescence intensity (a.u.)
6,ATATCTATGCACGCGACAACCAAAACATTACAATTCCACGCGGAGTCACCTAGTGCAG,3240 fluorescence intensity (a.u.)
7,GTTTGCTAATTAACGCGGGCAAGATCGAACACGGCCATGTCGGAGTCACCTAGTGCAG,15300 fluorescence intensity (a.u.)
8,AACTAATGCCAATATTGGCCTATATTGGCACACGTGGGTACGGAGTCACCTAGTGCAG,4350 fluorescence intensity (a.u.)
9,ACCCCGCCTTGGACGCCACGTCCAAGCTAGGCACCCGATGCGGAGTCACCTAGTGCAG,5270 fluorescence intensity (a.u.)
10,TTATGTTTGAATTTAAGTTTTGAGTTTTGTTGCGTGCGCACGGAGTCACCTAGTGCAG,28800 fluorescence intensity (a.u.)
11,AATCTCCCTCACGCTGACGTCAGCCCTAGCGTTCTCCTCCCGGAGTCACCTAGTGCAG,19700 fluorescence intensity (a.u.)
12,CACGCCACCACGCTCTCCGTGACAACGAGGCGCCAACCTCCGGAGTCACCTAGTGCAG,3640 fluorescence intensity (a.u.)
13,GGCTGAGAGAGAGACGCACACATGACACACCGGCGGACAACGGAGTCACCTAGTGCAG,4250 fluorescence intensity (a.u.)
14,CACCCGATTAAGTGCACGGACATGACGACTTCTACCGCCGCGGAGTCACCTAGTGCAG,4550 fluorescence intensity (a.u.)
15,GCCAGGTCCAACGCTGCAGATGTGTATAACATGCGGACACCGGAGTCACCTAGTGCAG,3340 fluorescence intensity (a.u.)

# The results go on:

row,Sequence,binding signal
1,TCCACCATTAGCAGTTTAACCGTCTGATCAGCAGTGGAACCGGAGTCACCTAGTGCAG,3420 fluorescence intensity (a.u.)
2,GGGCCTGGACACAATGGTTGGTGAACATGGAGCTCAGCTACGGAGTCACCTAGTGCAG,30500 fluorescence intensity (a.u.)
3,CTCACCCTCGACCTGTCATCCTCCGCCACCTTCTTCGACTCGGAGTCACCTAGTGCAG,5120 fluorescence intensity (a.u.)
4,AAGCAAGCAATTGCTTTTGCTAAAGCCACGCAAGCAAACCCGGAGTCACCTAGTGCAG,9890 fluorescence intensity (a.u.)
5,CCTAATTAATCCATAATTATCAAAAGTTTACTGTAGCATCCGGAGTCACCTAGTGCAG,27800 fluorescence intensity (a.u.)
6,TAGACAAGCGCACTTTCTGCTCTCTGACGCCAGATCAACTCGGAGTCACCTAGTGCAG,3600 fluorescence intensity (a.u.)
7,GTGGGGCCTAGGTGGGTCCCACGCTGACTCAGCTGCCACACGGAGTCACCTAGTGCAG,17900 fluorescence intensity (a.u.)
8,GTGATGACGTGCCCAGCTAACACGTGGGGTCCACGTGGGTCGGAGTCACCTAGTGCAG,20000 fluorescence intensity (a.u.)
9,CCATGGCTGCCCTACTGCGTCATCCCTAGCTTGTCGAGGTCGGAGTCACCTAGTGCAG,4980 fluorescence intensity (a.u.)
10,CGTTTTGTAATTGTAAGGCTACGTTCAAAAGTGGAGGATGCGGAGTCACCTAGTGCAG,3320 fluorescence intensity (a.u.)
11,TTCCTTCATTATATCCTAACTACCGGGCTCCTGAGTCAGCCGGAGTCACCTAGTGCAG,6970 fluorescence intensity (a.u.)
12,ACTCCTGAGTCAACCAAGGAAAGAATGTTCGATGACCTGCCGGAGTCACCTAGTGCAG,3480 fluorescence intensity (a.u.)
13,AAGAAGAAGAAGAAATGAATGCCGAGCTGGCATTTACTTACGGAGTCACCTAGTGCAG,4720 fluorescence intensity (a.u.)
14,ACATATGCTGTGTTAATGAATATGGCTAGCCAACGTGTATCGGAGTCACCTAGTGCAG,4350 fluorescence intensity (a.u.)
15,CACTCCAGTCAGTCCACGCCCACACCGCCGCCGCCCGCATCGGAGTCACCTAGTGCAG,3870 fluorescence intensity (a.u.)
16,GGGCCCACCTTTCAGCCTCCGTCACGTCACCGGCTCCGCCCGGAGTCACCTAGTGCAG,5720 fluorescence intensity (a.u.)
17,ATATATTTAATCCAGTCCTTACATGACTCGGATTGGCGTGCGGAGTCACCTAGTGCAG,7230 fluorescence intensity (a.u.)
18,TCAGGGTGTTGGGCAGATCAGTTCACTTGGTTAGCGAGCGCGGAGTCACCTAGTGCAG,3820 fluorescence intensity (a.u.)
19,CGGCAGAGAGAGAGGGGTTCGAGAAATAAATTCCAGTGGCCGGAGTCACCTAGTGCAG,3150 fluorescence intensity (a.u.)
20,TGTGCAATACCAAATCCTGACCGTTGATCTAGCATCATTCCGGAGTCACCTAGTGCAG,4100 fluorescence intensity (a.u.)
21,AGGTTGTGGTTCCGTCACGAGTAAACTGGCGATCAAACCGCGGAGTCACCTAGTGCAG,3460 fluorescence intensity (a.u.)

# From article PMC7819943, “Rice protein-binding microarrays: a tool to detect cis-acting elements near promoter regions in rice”
